No constants are given. Whether binding was seen depends on the method and setting. Binding seen in cells or lysates may run through a third protein. Binding calls can cover weak binding; strength is not graded here.
Legend:
[1] = target: voltage-dependent anion channel 1 (VDAC1), endogenous mouse (mouse (endogenous in mouse liver, primary mouse hepatocytes and AML12 cells)) (UniProt Q60932); test: proximity ligation; in situ PLA (Duolink) on fixed, permeabilised primary mouse hepatocytes (Pdk4+/+ and Pdk4-/-), with or without 100 mM EtOH for 24 h; endogenous proteins
[2] = target: voltage-dependent anion channel 1 (VDAC1), endogenous mouse (mouse (endogenous in mouse liver, primary mouse hepatocytes and AML12 cells)) (UniProt Q60932); test: proximity ligation; in situ PLA (Duolink) on fixed, permeabilised AML12 cells; endogenous proteins, PDK4-FLAG (FLAG antibody) or HA-tagged GRP75 WT/mutants (HA antibody) co-overexpressed with PDK4-FLAG; with or without 100 mM EtOH for 24 h
[3] = target: glucose-regulated protein 75 (GRP75), endogenous mouse (mouse (endogenous in mouse liver, primary mouse hepatocytes and AML12 cells)) (UniProt P38647); test: proximity ligation; in situ PLA (Duolink) on fixed, permeabilised primary mouse hepatocytes (Pdk4+/+ and Pdk4-/-), with or without 100 mM EtOH for 24 h; endogenous proteins
[4] = target: Human GRP75 with c-term HA tag, non-phosphorylatable mutant S266-A (human) (UniProt P38646); test: co-IP; IP with HA antibody from AML12 cells overexpressing HA-tagged WT or phospho-mutant GRP75, either co-overexpressing PDK4-FLAG (Fig. 3g) or treated with 100 mM EtOH for 24 h (Fig. 4a); immunoblotting of endogenous IP3R1 and VDAC1
[5] = target: Human GRP75 with c-term HA tag, non-phosphorylatable mutant T120-A (human) (UniProt P38646); test: as above
[6] = target: Human GRP75 with c-term HA tag, non-phosphorylatable mutant T267-A (human) (UniProt P38646); test: as above
[7] = target: Human GRP75 with c-term hemagglutinin (HA) tag, wild type (human) (UniProt P38646); test: as above
[8] = target: glucose-regulated protein 75 (GRP75), endogenous mouse (mouse (endogenous in mouse liver, primary mouse hepatocytes and AML12 cells)) (UniProt P38647); test: co-IP; IP with GRP75 antibody from liver lysates of control diet (CD) and EtOH diet (ED)-fed mice; lysis buffer 50 mM Tris, 150 mM NaCl, 1% Triton X-100, 1 mM EDTA, 10% glycerol; A/G plus agarose beads overnight at 4 °C; immunoblotting
[9] = target: glucose-regulated protein 75 (GRP75), endogenous mouse (mouse (endogenous in mouse liver, primary mouse hepatocytes and AML12 cells)) (UniProt P38647); test: proximity ligation; in situ PLA (Duolink) on fixed, permeabilised AML12 cells; endogenous proteins, PDK4-FLAG (FLAG antibody) or HA-tagged GRP75 WT/mutants (HA antibody) co-overexpressed with PDK4-FLAG; with or without 100 mM EtOH for 24 h

Protein sequences, listed by entry. Tags and fused reporters are not part of them. Lines headed by an entry give the natural chain unless they say otherwise; changes in a name come on top. Chains listed by the source or under a name are the forms on record and can include a tag or linker. Residues count along the entry.
UniProt Q60932: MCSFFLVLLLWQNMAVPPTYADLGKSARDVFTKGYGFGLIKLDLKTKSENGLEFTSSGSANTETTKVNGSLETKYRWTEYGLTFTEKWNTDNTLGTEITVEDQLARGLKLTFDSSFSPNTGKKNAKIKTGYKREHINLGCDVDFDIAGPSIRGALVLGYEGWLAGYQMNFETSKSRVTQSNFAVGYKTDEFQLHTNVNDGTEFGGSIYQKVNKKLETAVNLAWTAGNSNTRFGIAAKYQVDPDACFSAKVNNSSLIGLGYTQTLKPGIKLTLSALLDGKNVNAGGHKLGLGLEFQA
UniProt P38647, residues 47-679: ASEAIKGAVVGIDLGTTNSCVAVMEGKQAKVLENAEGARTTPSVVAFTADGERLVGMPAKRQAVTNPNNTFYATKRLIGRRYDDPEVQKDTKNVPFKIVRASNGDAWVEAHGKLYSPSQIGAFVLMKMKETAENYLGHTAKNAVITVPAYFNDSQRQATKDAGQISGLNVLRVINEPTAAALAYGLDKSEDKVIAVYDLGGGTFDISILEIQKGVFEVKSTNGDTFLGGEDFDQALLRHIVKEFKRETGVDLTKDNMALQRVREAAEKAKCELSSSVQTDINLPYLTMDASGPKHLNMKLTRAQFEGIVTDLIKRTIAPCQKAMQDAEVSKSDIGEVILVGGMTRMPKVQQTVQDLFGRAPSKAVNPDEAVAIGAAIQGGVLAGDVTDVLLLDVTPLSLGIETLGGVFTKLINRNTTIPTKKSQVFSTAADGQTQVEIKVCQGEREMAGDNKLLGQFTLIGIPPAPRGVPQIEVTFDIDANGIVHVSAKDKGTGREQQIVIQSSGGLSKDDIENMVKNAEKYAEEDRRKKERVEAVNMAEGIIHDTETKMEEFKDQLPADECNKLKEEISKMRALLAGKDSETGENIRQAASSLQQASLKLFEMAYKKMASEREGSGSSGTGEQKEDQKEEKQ
Human GRP75 with c-term hemagglutinin (HA) tag, wild type (P38646, residues 47-679): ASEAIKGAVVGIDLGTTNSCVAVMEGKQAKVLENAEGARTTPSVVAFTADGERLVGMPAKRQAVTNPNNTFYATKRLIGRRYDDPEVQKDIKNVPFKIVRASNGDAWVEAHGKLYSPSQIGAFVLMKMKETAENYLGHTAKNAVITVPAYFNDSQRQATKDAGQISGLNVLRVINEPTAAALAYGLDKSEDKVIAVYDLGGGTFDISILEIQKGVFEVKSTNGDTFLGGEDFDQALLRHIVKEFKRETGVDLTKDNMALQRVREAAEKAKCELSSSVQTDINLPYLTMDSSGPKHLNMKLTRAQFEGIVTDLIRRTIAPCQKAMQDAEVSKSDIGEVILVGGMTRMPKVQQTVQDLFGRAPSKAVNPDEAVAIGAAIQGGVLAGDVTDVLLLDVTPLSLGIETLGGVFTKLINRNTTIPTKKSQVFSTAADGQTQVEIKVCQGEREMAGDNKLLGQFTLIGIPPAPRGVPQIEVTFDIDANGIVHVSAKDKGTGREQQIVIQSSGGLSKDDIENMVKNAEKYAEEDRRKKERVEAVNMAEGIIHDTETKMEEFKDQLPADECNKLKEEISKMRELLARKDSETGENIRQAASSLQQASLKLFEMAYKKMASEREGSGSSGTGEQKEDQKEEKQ
Human GRP75 with c-term HA tag, non-phosphorylatable mutant S266-A (P38646, form named): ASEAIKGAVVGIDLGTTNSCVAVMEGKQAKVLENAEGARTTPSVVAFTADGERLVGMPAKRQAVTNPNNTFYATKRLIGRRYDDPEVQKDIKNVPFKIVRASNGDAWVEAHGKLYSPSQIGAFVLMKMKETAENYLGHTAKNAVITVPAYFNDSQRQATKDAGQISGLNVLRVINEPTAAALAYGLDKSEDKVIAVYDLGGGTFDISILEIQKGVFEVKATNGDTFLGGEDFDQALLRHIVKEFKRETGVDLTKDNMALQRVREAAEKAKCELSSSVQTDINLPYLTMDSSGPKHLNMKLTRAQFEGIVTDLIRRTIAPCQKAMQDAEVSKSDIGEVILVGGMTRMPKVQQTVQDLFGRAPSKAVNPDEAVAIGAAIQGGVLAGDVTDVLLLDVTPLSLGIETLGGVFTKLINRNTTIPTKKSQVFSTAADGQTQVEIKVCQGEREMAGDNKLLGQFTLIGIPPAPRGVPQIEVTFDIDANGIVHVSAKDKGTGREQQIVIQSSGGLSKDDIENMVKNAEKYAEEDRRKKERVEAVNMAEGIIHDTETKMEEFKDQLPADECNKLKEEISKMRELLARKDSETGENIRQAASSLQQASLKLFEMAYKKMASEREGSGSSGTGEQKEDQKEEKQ
Human GRP75 with c-term HA tag, non-phosphorylatable mutant T120-A (P38646, form named): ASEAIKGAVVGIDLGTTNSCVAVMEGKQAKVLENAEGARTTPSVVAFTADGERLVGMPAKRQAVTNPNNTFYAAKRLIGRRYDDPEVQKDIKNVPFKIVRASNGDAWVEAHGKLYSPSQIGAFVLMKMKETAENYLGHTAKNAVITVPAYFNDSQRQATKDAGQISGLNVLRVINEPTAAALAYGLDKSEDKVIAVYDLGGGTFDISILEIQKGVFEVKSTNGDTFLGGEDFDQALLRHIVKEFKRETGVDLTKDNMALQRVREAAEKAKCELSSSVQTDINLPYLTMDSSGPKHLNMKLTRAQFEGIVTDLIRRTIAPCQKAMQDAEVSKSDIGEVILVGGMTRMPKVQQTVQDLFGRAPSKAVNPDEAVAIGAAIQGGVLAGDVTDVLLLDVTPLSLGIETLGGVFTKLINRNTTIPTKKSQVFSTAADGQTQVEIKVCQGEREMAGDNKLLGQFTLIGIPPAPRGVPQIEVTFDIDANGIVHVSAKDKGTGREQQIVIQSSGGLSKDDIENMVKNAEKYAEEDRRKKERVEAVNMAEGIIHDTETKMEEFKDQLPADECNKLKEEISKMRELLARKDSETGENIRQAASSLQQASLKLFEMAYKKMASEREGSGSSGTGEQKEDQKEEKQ
Human GRP75 with c-term HA tag, non-phosphorylatable mutant T267-A (P38646, form named): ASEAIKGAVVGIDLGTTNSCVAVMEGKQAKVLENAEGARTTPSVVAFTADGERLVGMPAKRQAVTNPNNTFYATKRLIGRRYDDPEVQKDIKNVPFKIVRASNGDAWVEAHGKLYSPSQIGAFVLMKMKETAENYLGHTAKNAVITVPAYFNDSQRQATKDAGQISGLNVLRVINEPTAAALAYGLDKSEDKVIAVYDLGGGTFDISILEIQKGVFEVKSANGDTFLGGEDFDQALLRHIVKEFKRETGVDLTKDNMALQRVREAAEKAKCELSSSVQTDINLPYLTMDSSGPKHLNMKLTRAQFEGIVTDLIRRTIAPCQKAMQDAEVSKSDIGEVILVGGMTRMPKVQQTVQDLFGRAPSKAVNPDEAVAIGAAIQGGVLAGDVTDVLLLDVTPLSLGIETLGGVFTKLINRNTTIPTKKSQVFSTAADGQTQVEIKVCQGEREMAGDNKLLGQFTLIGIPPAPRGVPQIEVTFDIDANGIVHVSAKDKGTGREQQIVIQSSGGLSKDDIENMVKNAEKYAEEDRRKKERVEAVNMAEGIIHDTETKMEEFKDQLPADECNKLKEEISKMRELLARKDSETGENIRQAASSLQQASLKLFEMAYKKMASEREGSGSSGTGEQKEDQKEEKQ
UniProt P11881: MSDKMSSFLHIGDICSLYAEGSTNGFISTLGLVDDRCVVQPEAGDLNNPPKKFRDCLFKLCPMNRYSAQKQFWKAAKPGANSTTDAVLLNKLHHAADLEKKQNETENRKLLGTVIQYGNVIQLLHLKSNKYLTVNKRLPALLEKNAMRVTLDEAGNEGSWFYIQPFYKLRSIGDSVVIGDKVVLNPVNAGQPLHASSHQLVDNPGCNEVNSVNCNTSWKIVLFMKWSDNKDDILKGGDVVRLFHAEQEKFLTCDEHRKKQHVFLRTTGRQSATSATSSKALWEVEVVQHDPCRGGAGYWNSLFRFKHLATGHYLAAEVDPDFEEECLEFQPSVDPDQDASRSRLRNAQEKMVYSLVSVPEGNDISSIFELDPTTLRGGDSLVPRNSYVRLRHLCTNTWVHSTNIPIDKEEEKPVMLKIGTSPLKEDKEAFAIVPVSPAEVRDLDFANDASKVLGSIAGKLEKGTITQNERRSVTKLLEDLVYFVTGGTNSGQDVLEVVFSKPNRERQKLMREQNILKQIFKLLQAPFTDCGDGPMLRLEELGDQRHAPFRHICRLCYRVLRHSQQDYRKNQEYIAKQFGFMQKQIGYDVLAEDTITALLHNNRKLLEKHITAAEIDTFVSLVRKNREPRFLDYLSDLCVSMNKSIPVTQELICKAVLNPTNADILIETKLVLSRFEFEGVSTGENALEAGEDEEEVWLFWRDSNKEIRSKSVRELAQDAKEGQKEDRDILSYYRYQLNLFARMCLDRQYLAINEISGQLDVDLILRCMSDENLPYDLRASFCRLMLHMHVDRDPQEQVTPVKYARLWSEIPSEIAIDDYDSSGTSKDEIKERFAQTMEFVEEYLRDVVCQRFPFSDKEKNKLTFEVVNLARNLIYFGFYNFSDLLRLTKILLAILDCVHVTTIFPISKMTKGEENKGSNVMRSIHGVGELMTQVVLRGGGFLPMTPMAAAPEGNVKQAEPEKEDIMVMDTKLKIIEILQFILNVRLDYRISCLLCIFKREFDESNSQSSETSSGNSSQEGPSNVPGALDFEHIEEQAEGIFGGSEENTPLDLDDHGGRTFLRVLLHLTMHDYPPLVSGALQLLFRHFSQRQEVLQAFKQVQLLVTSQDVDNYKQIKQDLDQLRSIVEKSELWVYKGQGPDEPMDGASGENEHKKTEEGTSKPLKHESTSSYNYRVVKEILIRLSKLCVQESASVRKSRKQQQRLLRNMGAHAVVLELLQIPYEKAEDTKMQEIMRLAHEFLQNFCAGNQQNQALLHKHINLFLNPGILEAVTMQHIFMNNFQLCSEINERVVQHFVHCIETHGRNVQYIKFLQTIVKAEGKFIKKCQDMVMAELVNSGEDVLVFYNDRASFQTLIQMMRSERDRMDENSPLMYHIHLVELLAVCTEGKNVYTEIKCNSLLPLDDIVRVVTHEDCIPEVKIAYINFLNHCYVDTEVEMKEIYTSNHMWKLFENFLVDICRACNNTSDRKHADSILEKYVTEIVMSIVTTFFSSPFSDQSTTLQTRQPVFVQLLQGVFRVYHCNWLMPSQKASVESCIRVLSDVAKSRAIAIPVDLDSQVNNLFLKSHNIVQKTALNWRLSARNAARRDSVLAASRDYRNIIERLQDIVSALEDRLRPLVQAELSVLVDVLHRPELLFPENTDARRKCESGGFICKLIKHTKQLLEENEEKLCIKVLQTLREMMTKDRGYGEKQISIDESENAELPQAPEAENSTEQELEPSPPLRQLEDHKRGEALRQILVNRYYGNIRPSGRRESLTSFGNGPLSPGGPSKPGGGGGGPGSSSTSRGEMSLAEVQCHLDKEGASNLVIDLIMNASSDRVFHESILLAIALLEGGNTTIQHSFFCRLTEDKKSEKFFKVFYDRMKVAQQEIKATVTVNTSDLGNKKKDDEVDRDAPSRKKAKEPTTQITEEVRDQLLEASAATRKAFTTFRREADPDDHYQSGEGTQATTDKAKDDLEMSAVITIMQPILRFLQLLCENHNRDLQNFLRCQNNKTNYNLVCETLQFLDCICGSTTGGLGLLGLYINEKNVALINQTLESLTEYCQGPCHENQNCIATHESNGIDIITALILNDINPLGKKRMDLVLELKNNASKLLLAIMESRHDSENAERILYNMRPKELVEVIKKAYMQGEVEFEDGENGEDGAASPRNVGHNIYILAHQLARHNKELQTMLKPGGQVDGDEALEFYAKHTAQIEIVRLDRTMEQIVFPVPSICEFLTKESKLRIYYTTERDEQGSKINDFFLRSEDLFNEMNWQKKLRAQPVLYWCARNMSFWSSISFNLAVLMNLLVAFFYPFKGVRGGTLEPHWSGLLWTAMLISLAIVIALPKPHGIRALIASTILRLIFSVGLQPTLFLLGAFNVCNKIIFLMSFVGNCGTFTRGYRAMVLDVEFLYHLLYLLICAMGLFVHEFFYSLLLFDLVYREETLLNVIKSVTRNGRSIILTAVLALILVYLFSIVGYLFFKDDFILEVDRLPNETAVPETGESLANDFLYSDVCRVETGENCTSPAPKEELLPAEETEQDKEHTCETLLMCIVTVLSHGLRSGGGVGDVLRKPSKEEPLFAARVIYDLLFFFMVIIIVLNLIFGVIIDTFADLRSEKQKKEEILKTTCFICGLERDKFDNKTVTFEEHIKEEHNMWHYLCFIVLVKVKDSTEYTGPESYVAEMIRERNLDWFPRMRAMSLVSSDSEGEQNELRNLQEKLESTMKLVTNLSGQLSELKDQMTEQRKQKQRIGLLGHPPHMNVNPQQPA

binding [1] | binding [2] | Substance | binding [3] | binding [4] | binding [5] | binding [6] | binding [7] | binding [8] | binding [9]
binds | binds | inositol-1-tri-phosphate receptor 1 (IP3R1), endogenous mouse (from UniProt P11881 1-2749) | – | – | – | – | – | – | –
– | – | voltage-dependent anion channel 1 (VDAC1), endogenous mouse (from UniProt Q60932) | binds | binds | binds | binds | binds | binds | binds

Reference: PMC10042999
